Measured values: article doi:10.1101/041947v2 (biorxiv, 2016)

Tested on: A549
Assay: cells
Conditions: Homo sapiens, A549, read-out: IC50 nM

With `CC(=O)O[C@H]1C(=O)[C@@]2(C)[C@H]([C@H](OC(=O)c3ccccc3)[C@]3(O)C[C@H](OC(=O)[C@H](O)[C@@H](NC(=O)c4ccccc4)c4ccccc4)C(C)=C1C3(C)C)[C@]1(OC(C)=O)CO[C@@H]1C[C@@H]2O` [Paclitaxel] the IC50 was 4.3 nM.
